Values joined by “and” are separate entries in the source; they are usually repeats but may differ in a detail not shown here. Equal values may be shown once. The shares of active, inactive and inconclusive entries below differ from those in the screen. Where the call is inconclusive, the potency comes from a doubtful curve fit. Active and inactive are the calls of the source. Rule for the calls: active = hit-call score of the fitted dose curve at least 0.9, where 1 is the maximum; inconclusive = response in the unintended direction; inactive = score below 0.9.
target: human RAR-related Orphan Receptor gamma (RORg), RORC (gene 6097) (UniProt P51449); experiment: ATG_RORg_TRANS: Attagene TRANS-FACTORIAL HepG2 Assay for human RAR-related Orphan Receptor gamma (RORg) (AID 2283011);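 for AC50: potency for induction of reporter transcripts above DMSO so activators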
Experimental: ATG_TRANS is a cell-based, multiplexed-readout assay that uses HepG2, a human liver cell line, with measurements taken at 24 hours after chemical dosing in a 24-well plate.ATG_RORg_TRANS is one of 30 assay component(s) measured or calculated from the ATG_TRANS assay. It is designed to make measurements of mRNA induction, a form of inducible reporter, as detected with fluorescence intensity signals by Reverse transcription polymerase chain reaction (RT-PCR) and Capillary electrophoresis technology.Data from the assay component ATG_RORg_TRANS was analyzed into 1 assay endpoint. This assay endpoint, ATG_RORg_TRANS, was analyzed in the positive analysis fitting direction relative to DMSO as the negative control and baseline of activity. Using a type of inducible reporter, measures of mRNA for gain-of-signal activity can be used to understand the reporter gene at the transcription factor-level as they relate to the gene RORC. Furthermore, this assay endpoint can be referred to as a primary readout, because this assay has produced multiple assay endpoints where this one serves a reporter gene function. To generalize the intended target to other relatable targets, this assay endpoint is annotated to the nuclear receptor intended target family, where the subfamily is orphan.
Human liver HepG2 cells are transiently transfected with multiple reporter transcription units (MRTUs) in 6-well plates using FuGene 6 reagent (Roche; 3 ml FuGene/1 mg DNA). The MRTU constructs are regulated by a cis-regulating element (promoter). […] A major difference between the CIS and TRANS system is that in CIS activities of endogenous TFs are measured, whereas the TRANS assay evaluates changes in activities of exogenous, chimeric NR-Gal4 proteins. […] At the end of 24 hour incubation, total RNA was isolated using TriZol reagent (Invitrogen). The isolated RNA is then reverse-transcribed using oligo(dT) primer and Mo-MLV reverse transcriptase (Invitrogen) with DNAse I (Ambion) treatment for 30 min. The one-tenth of the produced cDNA was amplified by PCR using Taq DNA polymerase (Invitrogen) and two reporter sequence-specific primers. The PCR products were fluorescently labeled by primer extension with 6-arboxyfluorescein (6-FAM) 5'-labeled reporter sequence-specific primer (2 min at 95 C, 20 s at 68 C and 10 min at 72 C) and these products were digested with 5U of HpaI (New England Biolabs) for 2h at 37 C. The fragments were purified using Qiaquick PCR columns (Qiagen), analyzed on an ABI 3130xL genetic analyzer (Applied Biosystems) with peak positions identified by using a set of X-rhodamine (ROX)-labeled MapMarker1000 molecular weight standards (BioVentures). The raw capillary electrophoresis data was processed using Attagraph software (Attagene).

The chains behind the UniProt entries cited, without tags or fusion partners. Where a name states a change or a piece, a line headed by the entry shows the natural chain unless it says otherwise.
UniProt P51449: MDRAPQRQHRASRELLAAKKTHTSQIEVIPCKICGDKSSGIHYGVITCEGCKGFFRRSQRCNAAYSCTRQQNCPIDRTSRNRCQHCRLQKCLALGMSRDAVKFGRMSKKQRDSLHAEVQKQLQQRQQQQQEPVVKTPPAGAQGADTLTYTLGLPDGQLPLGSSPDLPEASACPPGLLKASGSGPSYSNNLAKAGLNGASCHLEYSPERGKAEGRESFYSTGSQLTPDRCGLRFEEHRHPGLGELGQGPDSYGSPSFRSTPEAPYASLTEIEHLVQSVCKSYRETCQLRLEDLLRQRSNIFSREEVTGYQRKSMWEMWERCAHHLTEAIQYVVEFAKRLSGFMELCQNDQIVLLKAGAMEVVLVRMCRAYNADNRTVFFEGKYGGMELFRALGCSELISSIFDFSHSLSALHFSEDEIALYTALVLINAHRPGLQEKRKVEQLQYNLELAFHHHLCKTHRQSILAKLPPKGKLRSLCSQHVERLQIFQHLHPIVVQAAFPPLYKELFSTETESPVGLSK

Structure (SMILES)	AC50	outcome
Oc1cc2ccccc2cc1O	–	inactive
CN(C)C(=O)C1(N2CCCCC2)CCN(CC[C@@]2(c3ccc(Cl)c(Cl)c3)CN(C(=O)c3ccccc3)CCO2)CC1	inconclusive: 0.62 µM	–
FC(F)(F)C(F)(F)C(F)(F)C(F)(F)C(F)(F)C(F)(F)CC1CO1 (stereo not given)	–	inactive
NC(CO)(CO)CO	–	inactive
CC(C)c1cc(C(C)C)cc(C(C)C)c1	inconclusive: 100 µM	–
COC(=O)c1c(Cl)c(Cl)c(C(=O)OC)c(Cl)c1Cl	–	inactive
NCCN1CCNCC1	–	inactive
C[Si](C)(C)C(F)(F)C(F)(F)C(F)(F)F	inconclusive: 150 µM	inactive
C=C(C)CCO	–	inactive
NCCN	inconclusive: 2.57 µM	–
O=C1CCCCCCCCCCCCCCCO1	inconclusive: 3 µM	–
CCO[Si](CCCN)(OCC)OCC	inconclusive: 3.81 µM	–
NC(=NCCCCCCN=C(N)/N=C(\N)Nc1ccc(Cl)cc1)/N=C(\N)Nc1ccc(Cl)cc1	inconclusive: 21.3 µM and inconclusive: 2.87 µM	–
CCn1nc(Cc2ccccc2)cc1C1CCN(C[C@H]2C[C@H](N(C)[C@@H](C(=O)O)C(C)C)C[C@@H]2c2cccc(F)c2)CC1	inconclusive: 100 µM	–
CCN(Cc1cccc(S(=O)(=O)O)c1)c1ccc(C(=C2C=CC(=[N+](CC)Cc3cccc(S(=O)(=O)O)c3)C=C2)c2ccccc2S(=O)(=O)[O-])cc1	inconclusive: 62 µM	–
CC(C)c1ccc(C=O)cc1	–	inactive
O=P(O)(O)CCC(F)(F)C(F)(F)C(F)(F)C(F)(F)C(F)(F)C(F)(F)C(F)(F)C(F)(F)F	inconclusive: 150 µM	inactive

Structure (SMILES)	AC50	outcome
Oc1ccc(O)cc1	inconclusive: 8.96 µM	–
CN(C)c1ccc(N=Nc2ccccc2C(=O)O)cc1	inconclusive: 0.273 µM	–
Oc1c(Cl)cc(Cl)c(Cl)c1Cl	inconclusive: 149 µM	–
CC(C)(C)c1ccc(-c2ccc(C(C)(C)C)cc2)cc1	inconclusive: 100 µM	–
COC(O)c1ccccc1 (stereo not given)	–	inactive
CCCCCCCCCC=CCC1CC(=O)OC1=O (stereo not given)	–	inactive
CCCCCCCCCCCC(=O)OCC(O)CO (stereo not given)	inconclusive: 100 µM	–
CCCCC1CCCCC(=O)O1 (stereo not given)	inconclusive: 100 µM	–
Cc1ccc(N)cc1O	–	inactive
CCCCOC(=O)CCCCCCCCC(=O)OCCCC	inconclusive: 0.00914 µM	–
Cc1nn(C)c(Oc2ccccc2)c1C=NOCc1ccc(C(=O)OC(C)(C)C)cc1	–	inactive
CN(C)CCCN(C)CCCN(C)C	inconclusive: 100 µM	–
CCC/C=C/C=O	inconclusive: 28.3 µM	–
Nc1ccc(F)c([N+](=O)[O-])c1	–	inactive

Retrieved one by one from the list above, 2 records:
Structure (SMILES)	AC50	outcome
Nc1ccc(F)c([N+](=O)[O-])c1	–	inactive
O=C1CCCCCCCCCCCCCCCO1	inconclusive: 3 µM	–
